No constants are given. Whether binding was seen depends on the method and setting. Binding seen in cells or lysates may run through a third protein. Some results given as binding are weak or reduced against the parent protein; the word gives no strength.
Key:
[1] = target: T1, MRTF-A (myocardin-related transcription factor A), endogenous (mouse (endogenous in C2C12)) (UniProt Q8K4J6); assay: co-IP; extracts of C2-WT and C2-H222P cells (not transfected); immunoprecipitated with MRTF-A antibody, protein G-Sepharose; lysis buffer 50 mM Tris-HCl pH 7.5, 0.15 M NaCl, 1 mM EDTA, 1% NP-40; 4 °C; immunoblot
T1 sequence: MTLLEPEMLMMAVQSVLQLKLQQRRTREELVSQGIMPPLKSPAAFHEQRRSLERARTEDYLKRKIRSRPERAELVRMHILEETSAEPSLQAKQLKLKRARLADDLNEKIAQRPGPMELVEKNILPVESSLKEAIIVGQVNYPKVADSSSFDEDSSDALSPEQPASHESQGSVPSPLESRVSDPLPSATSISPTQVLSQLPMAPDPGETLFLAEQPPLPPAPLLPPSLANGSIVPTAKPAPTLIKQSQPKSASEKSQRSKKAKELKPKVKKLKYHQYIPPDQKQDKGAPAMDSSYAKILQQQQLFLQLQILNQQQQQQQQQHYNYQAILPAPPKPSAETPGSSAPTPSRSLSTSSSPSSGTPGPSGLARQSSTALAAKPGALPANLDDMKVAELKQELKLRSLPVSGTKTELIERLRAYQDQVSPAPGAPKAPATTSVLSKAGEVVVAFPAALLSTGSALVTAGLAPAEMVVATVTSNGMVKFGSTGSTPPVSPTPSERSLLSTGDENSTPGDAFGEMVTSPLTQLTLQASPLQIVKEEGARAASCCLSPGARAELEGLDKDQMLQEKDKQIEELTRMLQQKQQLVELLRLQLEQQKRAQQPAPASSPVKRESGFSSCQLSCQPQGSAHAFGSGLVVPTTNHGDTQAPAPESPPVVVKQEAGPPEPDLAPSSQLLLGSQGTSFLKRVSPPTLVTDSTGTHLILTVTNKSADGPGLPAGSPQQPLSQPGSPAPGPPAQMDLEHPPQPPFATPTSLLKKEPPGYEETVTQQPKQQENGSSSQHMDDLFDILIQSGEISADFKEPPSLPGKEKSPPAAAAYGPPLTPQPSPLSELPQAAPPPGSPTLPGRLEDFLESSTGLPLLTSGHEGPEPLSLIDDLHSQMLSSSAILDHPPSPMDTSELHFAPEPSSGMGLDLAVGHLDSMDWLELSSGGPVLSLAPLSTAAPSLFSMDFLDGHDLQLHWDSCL

Protein sequences, listed by entry. Tags and fused reporters are not part of them.
UniProt P18760: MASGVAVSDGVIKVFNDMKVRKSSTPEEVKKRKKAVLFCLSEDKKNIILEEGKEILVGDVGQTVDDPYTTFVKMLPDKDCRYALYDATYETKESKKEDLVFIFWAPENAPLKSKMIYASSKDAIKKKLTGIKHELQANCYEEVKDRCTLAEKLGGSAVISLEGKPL

[2] = target: T1, MRTF-A (myocardin-related transcription factor A), endogenous (mouse (endogenous in C2C12)); assay: proximity ligation; Duolink in situ PLA on C2-WT and C2-H222P cells on glass coverslips; anti-MRTF-A and anti-phospho(T25)-cofilin-1 primary antibodies overnight at 4 °C

phospho(T25)-cofilin-1 (cofilin-1 phosphorylated on threonine 25) (from UniProt P18760 1-166)
binding [1]: binds | binding [2]: binds

— paper PMC9780334
